# In patent US10654917B2, “Antibody molecules and peptide delivery systems for use in alzheimer's disease and related disorders” (TECHNOPHAGE, INVESTIGAÇĀO E DESENVOLVIMENTO EM …, priority 2015, dated 2020):
# Experiment: Membrane dipole potential with di-8-ANEPPS in LUVs
# Assay type: physicochemical
# Details: LUVs of different lipidic compositions
row,Substance,"disturbance of membrane dipole potential (differential spectrum, di-8-ANEPPS)"
1,VQQLTKRFSL (Dengue virus 2; /note=“#PepH1”),no alteration in the differential spectrum
2,AGILKRW (Dengue virus 2; /note=“#PepH3 (PEP+)”),alterations in the spectrum
3,KLFMALVAFLRFLT [PepH2],high interaction with the different membrane models tested
